# Where two headings read alike, the source gives them in different places. These are yes or no findings as the source states them, for the method shown. In cells and extracts the contact can be indirect. Some entries that bind do so weakly or less than the wild type. For some assays here: Tags and fused reporters may be left off the sequences shown.
# By UniProt entry, the sequences of proteins in these tests, tags left out.
# UniProt O09106: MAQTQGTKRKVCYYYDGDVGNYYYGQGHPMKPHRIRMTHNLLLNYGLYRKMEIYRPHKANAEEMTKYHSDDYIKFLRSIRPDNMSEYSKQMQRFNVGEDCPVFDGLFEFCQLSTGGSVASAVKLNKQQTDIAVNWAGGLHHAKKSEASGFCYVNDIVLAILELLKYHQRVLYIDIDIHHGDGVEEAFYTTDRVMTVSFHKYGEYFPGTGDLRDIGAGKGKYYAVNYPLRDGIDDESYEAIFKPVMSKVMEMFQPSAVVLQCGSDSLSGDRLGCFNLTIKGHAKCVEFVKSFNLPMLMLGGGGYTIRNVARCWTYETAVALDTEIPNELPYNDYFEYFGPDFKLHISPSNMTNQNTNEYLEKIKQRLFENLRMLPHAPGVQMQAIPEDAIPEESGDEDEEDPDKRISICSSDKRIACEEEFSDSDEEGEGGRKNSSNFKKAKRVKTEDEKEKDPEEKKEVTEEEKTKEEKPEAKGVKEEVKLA
# UniProt P70288: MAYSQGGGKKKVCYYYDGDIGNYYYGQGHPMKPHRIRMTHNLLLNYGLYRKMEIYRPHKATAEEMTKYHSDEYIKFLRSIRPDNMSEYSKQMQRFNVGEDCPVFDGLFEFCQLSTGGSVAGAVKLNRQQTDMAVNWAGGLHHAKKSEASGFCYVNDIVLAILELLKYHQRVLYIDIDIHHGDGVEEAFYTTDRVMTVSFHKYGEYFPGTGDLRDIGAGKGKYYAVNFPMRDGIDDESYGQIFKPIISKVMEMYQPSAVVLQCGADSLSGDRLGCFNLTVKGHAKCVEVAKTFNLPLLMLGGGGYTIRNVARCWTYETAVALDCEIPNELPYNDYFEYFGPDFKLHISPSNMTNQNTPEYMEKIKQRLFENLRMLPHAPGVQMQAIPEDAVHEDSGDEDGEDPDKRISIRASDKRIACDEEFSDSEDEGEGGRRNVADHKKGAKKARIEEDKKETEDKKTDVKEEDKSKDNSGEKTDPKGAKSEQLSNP
# T1: FLAG-tagged ZFP541 (mouse) (UniProt Q0GGX2)
# T1 sequence: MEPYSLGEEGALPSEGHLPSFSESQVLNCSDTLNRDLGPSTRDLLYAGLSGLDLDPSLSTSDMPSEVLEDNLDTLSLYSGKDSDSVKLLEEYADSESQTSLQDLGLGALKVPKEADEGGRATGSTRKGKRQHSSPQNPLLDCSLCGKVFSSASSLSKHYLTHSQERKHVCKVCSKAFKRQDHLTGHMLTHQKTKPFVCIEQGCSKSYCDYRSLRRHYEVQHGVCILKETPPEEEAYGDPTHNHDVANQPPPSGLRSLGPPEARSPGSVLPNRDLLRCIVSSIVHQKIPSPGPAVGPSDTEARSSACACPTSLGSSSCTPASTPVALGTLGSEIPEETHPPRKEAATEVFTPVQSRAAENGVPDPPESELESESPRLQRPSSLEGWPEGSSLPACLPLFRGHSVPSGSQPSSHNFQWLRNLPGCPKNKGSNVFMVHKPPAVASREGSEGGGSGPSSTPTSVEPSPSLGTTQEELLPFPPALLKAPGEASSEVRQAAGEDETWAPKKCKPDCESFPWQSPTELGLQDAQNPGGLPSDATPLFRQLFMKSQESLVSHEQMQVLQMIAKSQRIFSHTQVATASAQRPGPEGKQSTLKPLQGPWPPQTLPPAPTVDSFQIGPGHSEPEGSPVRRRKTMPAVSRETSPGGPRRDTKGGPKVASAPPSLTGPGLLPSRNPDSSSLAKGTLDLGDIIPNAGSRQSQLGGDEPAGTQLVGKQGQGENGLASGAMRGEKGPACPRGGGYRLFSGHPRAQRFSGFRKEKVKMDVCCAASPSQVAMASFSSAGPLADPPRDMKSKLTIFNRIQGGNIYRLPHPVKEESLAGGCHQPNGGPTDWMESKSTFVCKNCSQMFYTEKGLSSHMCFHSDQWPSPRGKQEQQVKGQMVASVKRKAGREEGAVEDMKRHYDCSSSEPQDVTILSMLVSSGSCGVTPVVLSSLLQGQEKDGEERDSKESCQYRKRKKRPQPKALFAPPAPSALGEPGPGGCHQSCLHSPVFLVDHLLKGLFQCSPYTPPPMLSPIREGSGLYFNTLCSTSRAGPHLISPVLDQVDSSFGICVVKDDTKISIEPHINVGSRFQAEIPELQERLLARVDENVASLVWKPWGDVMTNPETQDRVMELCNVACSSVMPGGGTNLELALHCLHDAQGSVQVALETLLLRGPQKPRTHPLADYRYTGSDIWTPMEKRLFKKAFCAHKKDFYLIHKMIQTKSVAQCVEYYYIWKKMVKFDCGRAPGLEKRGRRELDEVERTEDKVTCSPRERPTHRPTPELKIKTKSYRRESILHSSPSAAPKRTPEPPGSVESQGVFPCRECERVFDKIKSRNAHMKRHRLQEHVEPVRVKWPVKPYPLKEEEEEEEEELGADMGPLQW
# T2: zinc finger protein 541 (ZFP541) (mouse (endogenous in testis)) (UniProt Q0GGX2)
# T2 sequence: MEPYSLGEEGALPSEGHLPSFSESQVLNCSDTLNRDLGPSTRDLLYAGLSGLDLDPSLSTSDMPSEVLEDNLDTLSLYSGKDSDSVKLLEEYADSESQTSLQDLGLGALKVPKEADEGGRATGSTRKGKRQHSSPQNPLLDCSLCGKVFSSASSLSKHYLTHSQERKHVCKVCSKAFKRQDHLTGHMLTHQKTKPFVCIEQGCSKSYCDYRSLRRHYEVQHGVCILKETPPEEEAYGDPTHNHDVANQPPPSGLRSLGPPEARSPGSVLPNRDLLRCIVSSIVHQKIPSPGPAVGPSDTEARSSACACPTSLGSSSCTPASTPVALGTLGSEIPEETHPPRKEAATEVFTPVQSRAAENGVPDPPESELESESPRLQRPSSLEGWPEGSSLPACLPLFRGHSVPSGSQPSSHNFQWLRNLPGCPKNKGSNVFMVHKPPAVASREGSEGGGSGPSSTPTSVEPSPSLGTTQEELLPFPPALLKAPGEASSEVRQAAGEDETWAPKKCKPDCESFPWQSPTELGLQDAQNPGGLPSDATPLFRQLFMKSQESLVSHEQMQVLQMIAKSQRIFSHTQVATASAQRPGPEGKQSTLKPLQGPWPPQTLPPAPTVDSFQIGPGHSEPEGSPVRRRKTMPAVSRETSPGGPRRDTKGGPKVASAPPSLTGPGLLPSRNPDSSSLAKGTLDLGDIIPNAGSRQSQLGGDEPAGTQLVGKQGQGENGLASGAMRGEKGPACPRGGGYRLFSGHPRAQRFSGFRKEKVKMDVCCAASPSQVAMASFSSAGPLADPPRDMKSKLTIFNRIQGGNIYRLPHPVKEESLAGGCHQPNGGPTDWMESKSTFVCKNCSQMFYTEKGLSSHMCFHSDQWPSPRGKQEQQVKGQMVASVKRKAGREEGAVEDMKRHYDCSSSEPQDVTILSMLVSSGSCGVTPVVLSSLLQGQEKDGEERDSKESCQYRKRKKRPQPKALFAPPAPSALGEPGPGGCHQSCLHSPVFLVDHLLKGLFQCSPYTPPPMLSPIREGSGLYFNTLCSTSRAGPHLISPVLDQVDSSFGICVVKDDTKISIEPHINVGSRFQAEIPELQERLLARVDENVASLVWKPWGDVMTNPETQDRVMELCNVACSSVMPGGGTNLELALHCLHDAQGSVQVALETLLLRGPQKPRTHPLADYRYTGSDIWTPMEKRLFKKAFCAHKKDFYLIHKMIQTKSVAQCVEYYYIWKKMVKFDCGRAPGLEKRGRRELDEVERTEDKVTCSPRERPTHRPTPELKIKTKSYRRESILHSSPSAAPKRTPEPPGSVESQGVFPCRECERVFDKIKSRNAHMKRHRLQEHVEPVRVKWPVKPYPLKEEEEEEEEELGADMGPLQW
# Legend:
# Assay in all cases: co-IP
# [1] = target: T1, FLAG-tagged ZFP541 (mouse)
# [2] = target: T2, zinc finger protein 541 (ZFP541) (mouse (endogenous in testis))
# [3] = target: T1, FLAG-tagged ZFP541 (mouse); remark: listed apart in the source
# [4] = target: T2, zinc finger protein 541 (ZFP541) (mouse (endogenous in testis)); remark: listed apart in the source
molecule,measurement,setting,value
MYC-tagged HDAC1 (from UniProt O09106 1-482),binding,[1],binds
histone deacetylase 1 (HDAC1) (from UniProt O09106 1-482),binding,[2],binds
histone deacetylase 2 (HDAC2) (from UniProt P70288 1-488),binding,[2],binds
MYC-tagged HDAC2 (from UniProt P70288 1-488),binding,[1],binds
"MYC-tagged KCTD19 (protein, UniProt Q562E2 1-927) MEEPGGLHESAEDLFHFNVGGWHFSVPRSKLAQFPDSLLWKEASALTSSENQRLFIDRDGSTFRHVHYYLYTSKLSFSSCAELNLLYEQALGLQLMPLLQTLDNLKEGRHHLRVRPADIPVAERASLNYWRTWKCISKPSDFPIKSPAFTGLHDKAPLGLMDTPLLDTEEEVHYCFLPLDLVAKYPSLVTEDNLLWLAETVALIECECSEFRFIVNFLRSHKILLPDNFSNIDVLEAEVEILEIPELTEAVRLYRMNMGGCSRTSCPPLSPGKGGRTASVESVKPLYLMALGLLVKYPDSALGQLRIESTLDGSRLYITGNGALFQHVRNWLGTCRLPLTETISEVYELCAFLDKRDITYEPMKVALKTHLEPRTLLPVDVLSEEWTAEVTIYSPQQIIKLYVGSHWYATTLQTLMKYPELLSNTQRVYWIAYGQTLLIHGDGQMFRHILNFLRLGKLFLPSEFKEWPLFCQEVEEYHIPALSEALAQCEAYKSWTQEKESENEEAFPIRKLHVVTEGTGPMAEFSRDAKETTACMPVDFQECSDRTPWNKAKGNLTRSSQMEEAEQYTRTIQVSLCRNAKRGGNPSTYSHCSGLCANPRHWGGHSESPPKKKCTTINLTQKPDAKDPPVTPMQKLISLVREWDMVNCKQWEFQPLPASRSSSVEEASLHVPSGSEAAPQPGTSAAWKAHSITSEKDAGPQTGPGAGVKDKGPEPTFKPYFPTKRAITLKDWGKQRPKDRESPAPEQPLPNANGTDNPGAILKVAHPPVVGNDGSCMFFEDSIIYTTQMDNIKHTSLTASPQLREVTFLSFSLSWEEMFYAQKCHRFLTDIILDSIRQKDPKAITAKVVSLAYRLWTLNISPKQFVVDLLAIAGFKDDRHTQERLYSWVELTLPFARKYGRCVDLLIQRGLSRSVSYSVLGKYLHEG",binding,[3],binds
"MYC-tagged DNTTIP1 (protein, UniProt Q99LB0 1-328) MGATGDTEQPRGPGGAERGGLELGDAGAAGQPVLTNPWNIMIKHRQVQRRGRRSQMTTSFTDPAISMDLLRAVLQPSINEEIQGVFNKYMKFFQKAALNVRDNVGEEVDAEQLIQEACRSCLEQAKLLFSDGEKVIPRLAHELPGIKRGRQAEEESHRGSPIPKKRKGRPPGHVLSNDRAAAGMVWKQKSCEPIRREGPKWDPARLNESTTFVLGSRANKALGMGGTRGRIYIKHPHLFKYAADPQDKHWLAEQHHMRATGGKMAYLLIEEDIRDLAASDDYRGCLDLKLEELKSFVLPSWMVEKMRKYMETLRTENEHRAAEAPPQT",binding,[3],binds
"potassium channel tetramerization domain containing 19 (KCTD19) (protein, UniProt Q562E2 1-927) MEEPGGLHESAEDLFHFNVGGWHFSVPRSKLAQFPDSLLWKEASALTSSENQRLFIDRDGSTFRHVHYYLYTSKLSFSSCAELNLLYEQALGLQLMPLLQTLDNLKEGRHHLRVRPADIPVAERASLNYWRTWKCISKPSDFPIKSPAFTGLHDKAPLGLMDTPLLDTEEEVHYCFLPLDLVAKYPSLVTEDNLLWLAETVALIECECSEFRFIVNFLRSHKILLPDNFSNIDVLEAEVEILEIPELTEAVRLYRMNMGGCSRTSCPPLSPGKGGRTASVESVKPLYLMALGLLVKYPDSALGQLRIESTLDGSRLYITGNGALFQHVRNWLGTCRLPLTETISEVYELCAFLDKRDITYEPMKVALKTHLEPRTLLPVDVLSEEWTAEVTIYSPQQIIKLYVGSHWYATTLQTLMKYPELLSNTQRVYWIAYGQTLLIHGDGQMFRHILNFLRLGKLFLPSEFKEWPLFCQEVEEYHIPALSEALAQCEAYKSWTQEKESENEEAFPIRKLHVVTEGTGPMAEFSRDAKETTACMPVDFQECSDRTPWNKAKGNLTRSSQMEEAEQYTRTIQVSLCRNAKRGGNPSTYSHCSGLCANPRHWGGHSESPPKKKCTTINLTQKPDAKDPPVTPMQKLISLVREWDMVNCKQWEFQPLPASRSSSVEEASLHVPSGSEAAPQPGTSAAWKAHSITSEKDAGPQTGPGAGVKDKGPEPTFKPYFPTKRAITLKDWGKQRPKDRESPAPEQPLPNANGTDNPGAILKVAHPPVVGNDGSCMFFEDSIIYTTQMDNIKHTSLTASPQLREVTFLSFSLSWEEMFYAQKCHRFLTDIILDSIRQKDPKAITAKVVSLAYRLWTLNISPKQFVVDLLAIAGFKDDRHTQERLYSWVELTLPFARKYGRCVDLLIQRGLSRSVSYSVLGKYLHEG",binding,[4],binds
"deoxynucleotidyltransferase terminal-interacting protein 1 (DNTTIP1) (protein, UniProt Q99LB0 1-328) MGATGDTEQPRGPGGAERGGLELGDAGAAGQPVLTNPWNIMIKHRQVQRRGRRSQMTTSFTDPAISMDLLRAVLQPSINEEIQGVFNKYMKFFQKAALNVRDNVGEEVDAEQLIQEACRSCLEQAKLLFSDGEKVIPRLAHELPGIKRGRQAEEESHRGSPIPKKRKGRPPGHVLSNDRAAAGMVWKQKSCEPIRREGPKWDPARLNESTTFVLGSRANKALGMGGTRGRIYIKHPHLFKYAADPQDKHWLAEQHHMRATGGKMAYLLIEEDIRDLAASDDYRGCLDLKLEELKSFVLPSWMVEKMRKYMETLRTENEHRAAEAPPQT",binding,[4],binds

# — doi:10.1101/2021.06.22.449524
